In assay [1] the test system is histone deacetylase enzyme in nuclear extracts from H446 cells (pooled HDACs). The assay is described as follows: Histone deacetylase inhibition, H446 nuclear extracts (pooled HDACs). The class given is biochemical, human. The settings on record: read-out: pooled HDACs IC50; H446 nuclear extract, [3H]-acetylated histone substrate.
The target of assay [2] is recombinant human HDAC-1 enzyme (rHDAC-1) (Homo sapiens, UniProt Q13547). Description: Histone deacetylase inhibition, recombinant human HDAC-1. The class given is biochemical. Conditions: read-out: rHDAC-1 IC50, cloned recombinant human HDAC-1, Baculovirus insect cell expression.

Chains of the proteins cited; added tags and fusions are not shown.
UniProt Q13547, whole entry: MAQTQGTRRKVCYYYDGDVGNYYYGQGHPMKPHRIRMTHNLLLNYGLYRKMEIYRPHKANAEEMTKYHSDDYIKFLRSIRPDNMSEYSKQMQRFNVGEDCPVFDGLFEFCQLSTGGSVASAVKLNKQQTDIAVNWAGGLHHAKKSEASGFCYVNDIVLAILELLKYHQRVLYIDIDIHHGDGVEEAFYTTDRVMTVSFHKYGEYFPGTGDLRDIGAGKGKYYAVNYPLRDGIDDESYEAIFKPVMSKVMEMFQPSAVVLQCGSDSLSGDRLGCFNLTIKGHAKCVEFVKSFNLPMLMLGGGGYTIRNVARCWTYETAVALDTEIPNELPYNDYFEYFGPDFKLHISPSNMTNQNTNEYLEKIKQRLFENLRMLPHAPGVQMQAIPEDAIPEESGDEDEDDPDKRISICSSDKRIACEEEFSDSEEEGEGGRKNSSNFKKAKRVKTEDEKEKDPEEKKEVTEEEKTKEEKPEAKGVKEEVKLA

Read-outs that look alike come from different tables or passages of the source. Structures were worked out from names or drawings and are uncertain.

Broadly, the IC50 is the concentration needed to halve the response being measured.

Turning to `O=C(CCCCCC(=O)c1ccc2ccccc2c1)NO`, the IC50 in assay [1] stood at 0.35 µM.
With `Nc1ccccc1NC(=O)CCCCCCC(=O)c1ccc(-c2ccc(Br)cc2)cc1`, the IC50 in assay [2] (tested form: HCl) stood at 4 µM.
Consider `O=C(CCCCCCC(=O)c1ccc(-c2ccccc2)cc1)Nc1nccs1`, for which the IC50 in assay [2] was 23 µM.

For the origin of these results see patent US7288567B2, “Inhibitors of histone deacetylase” (Methylgene Inc., priority 2000, dated 2007).
